{"source": "paper PMC10182956", "about": "(Archives of Toxicology, 2023)", "system": "HepaRG cells", "conditions": "HepaRG 24 h", "data": [{"smiles": "CCCCc1oc2ccccc2c1C(=O)c1cc(I)c(OCCN(CC)CC)c(I)c1", "note": "[amiodarone]", "values": [{"measurement": "Concentration at which increase of number of apoptotic cells (nuclear morphology) exceeded the threshold", "result": 25, "unit": "µM"}]}]}
